Data reported in PubChem BioAssay AID485353 (National Center for Advancing Translational Sciences (NCATS), 2010).
Screen size: about 330,000 compounds; about 610 (0.18%) were called active. The shares of active, inactive and inconclusive entries below differ from those in the screen. The call rests on the fitted dose curve. Where the call is inconclusive, the potency comes from a doubtful curve fit.

Experiment: qHTS of Yeast-based Assay for SARS-CoV PLP; further: nearly all actives have a fitted effect of over 55% in size; on activity, positive = growth rescue: 0% is about no effect
Details: S. cerevisiae expressing SARS-CoV PLpro; Potency: growth rescue; activity, positive = growth rescue: at 32.9 µM (top of the series)
Potency means the concentration at half of the fitted maximal effect.

SMILES | Potency | activity, positive = growth rescue
O=C(CCC(=O)OCc1ccc([N+](=O)[O-])cc1Cl)Nc1ccccc1 | inconclusive: 2.82 µM [activator, single point] | 
COc1ccc(N2CC(C(=O)Nc3ccc(N4CCOCC4)cc3)CC2=O)cc1 (configuration not stated) | inconclusive: 2.82 µM [activator, single point] | 
CCC1=C(c2ccc(C)cc2)S(=O)(=O)N=C1N1CCC(C(=O)NCCCN2CCCCC2)CC1 |  | inactive: 4.83%
Cc1ccc(S(=O)(=O)N2CCN=C2SCc2c(F)cccc2Cl)cc1 | inconclusive: 2.82 µM [activator, partial curve] | 
CC(c1ccccc1)c1nnc(NC(=O)Nc2ccccc2)s1 (configuration not stated) | inconclusive: 20 µM [activator, single point] | 
O=C(N/N=C/c1cc(Br)ccc1O)Nc1ccccc1 |  | inactive: -20.7%
C=CCn1c(=S)[nH]c2ccccc2c1=O | inconclusive: 15.8 µM [activator, partial curve] | 
COc1ccc(C2N(S(=O)(=O)c3ccccc3)CCN2S(=O)(=O)c2ccc(C)cc2)cc1 (configuration not stated) | inconclusive: 4.47 µM [activator, single point] | 
O=C1Nc2ccc(Br)cc2/C1=C/c1ccc(C(=O)O)cc1 |  | inactive: 2%
COc1ccc(NC(=O)CSc2ccc(-c3ccccn3)nn2)cc1OC | active: 10 µM | 
O=C(COC(=O)c1cccnc1Cl)NC1CCCCCC1 | active: 3.16 µM | 
COc1ccc(-n2nc3c(c2NC(=O)COc2ccccc2F)CS(=O)(=O)C3)cc1 | inconclusive: 3.98 µM [activator, full curve, poor fit] | 
O=C(NC(=S)NCc1ccccc1)C1CCCCC1 | inconclusive: 2.51 µM [activator, single point] | 
CCOC(=O)c1c(-n2c(C)cc(/C=C3\C(=O)NC(=O)N(C)C3=O)c2C)sc2c1CCCC2 | inconclusive: 20 µM [activator, single point] | 
c1ccc(-c2ccccc2OCCCCN2CCCCCC2)cc1 |  | inactive: -0.397%
COc1cc([N+](=O)[O-])cc(/C=N/NC(=O)C(O)(c2ccccc2)c2ccccc2)c1O | inconclusive: 22.4 µM [activator, single point] | 
COc1ccc(NC(=O)CN(C)CC(=O)NCc2ccc(C)cc2)cc1 |  | inactive: 6.38%
O=C(CCC1CCCCC1)NNC(=O)c1cnccn1 | inconclusive: 12.6 µM [activator, single point] | 
Cc1nc(-c2coc3c(CN(C)C)c(O)ccc3c2=O)cs1 |  | inactive: -12.7%
Cc1ccc(S(=O)(=O)N2CCOCC2)cc1C(=O)NC(=S)N1CC(C)CC(C)C1 (configuration not stated) |  | inactive: -0.64%
CC(C)Nc1nc(NC(C)C)nc(OCCOC(=O)c2ccccc2)n1 | inconclusive: 3.55 µM [activator, single point] | 
CC(C)(C)C(=O)C1=C(O)C(=O)N(c2ccccc2)C1c1ccccc1 (configuration not stated) | inconclusive: 20 µM [activator, single point] | 
CCN(Cc1cc2ccccc2[nH]c1=O)S(=O)(=O)c1ccc(OC)cc1 | inconclusive: 3.98 µM [activator, single point] | 
CCOc1ccc2nc(C)cc(Nc3ccc(N4CCOCC4)cc3)c2c1 | inconclusive: 10 µM [activator, partial curve] | 

SMILES | Potency | activity, positive = growth rescue
O=C(NNC(=S)NC(=O)c1ccccc1[N+](=O)[O-])c1ccccc1[N+](=O)[O-] | inconclusive: 20 µM [activator, single point] | 
COc1ccc(-c2nc(NC(=O)c3ccccc3)sc2-c2ccc([N+](=O)[O-])cc2)cc1 |  | inactive: 6.24%
COc1ccc(CN(C)c2nc(-c3cccnc3)nc3ccccc23)cc1OC |  | inactive: -0.871%
O=C(O)c1cnn2cc(-c3[nH]ncc3[N+](=O)[O-])cnc12 | inconclusive: 0.282 µM [activator, partial curve, poor fit] | 
COc1ccc(NC(=S)NN2C(C)CCCC2C)cc1 (configuration not stated) | active: 12.6 µM | 
Cc1nc(SCN2C(=O)c3ccccc3C2=O)n[nH]1 | inconclusive: 22.4 µM [activator, partial curve, poor fit] | 
Cc1ccc(/C=C2/NC(=O)N(Cc3ccccc3F)C2=O)s1 |  | inactive: -1.68%
COc1ccc(Cl)cc1NC(=O)CN(C)C(=O)c1ccc(C)s1 |  | inactive: -4.9%
COc1ccc(CNC(=O)CSC(=S)N2CCCC2)cc1 |  | inactive: 10.4%
O=C(NC1CCCN(C2Cc3ccccc3C2)C1)c1ccc(F)cc1Cl (configuration not stated) | inconclusive: 20 µM [activator, single point] | 
Cc1ccc(S(=O)(=O)Nc2cc(Cl)c(O)c3ncccc23)cc1 | inconclusive: 20 µM [activator, single point] | 
C[N+](C)(CCOc1ccccc1)Cc1ccccc1 (tested in a mixture with another compound) | inconclusive: 0.794 µM [activator, full curve] | 
NC(=S)N/N=C/c1ccc(-n2nncc2-c2ccc(Cl)cc2)cc1 | active: 10 µM | 
c1ccc(OCc2nn3c(-c4ccco4)nnc3s2)cc1 | inconclusive: 20 µM [activator, single point] | 
COC(=O)C1=C(c2ccc(Cl)c(C(F)(F)F)c2)C[C@@H]2CC[C@H]1N2C(=O)NCCNC(C)=O |  | inactive: 0.0527%
COc1ccc(OC)c(NC2c3ccccc3C(=O)N2c2cccnc2)c1 (configuration not stated) | inconclusive: 12.6 µM [activator, single point] | 
CCOC(=O)C1(P(=O)(c2ccc(Cl)cc2)c2ccc(Cl)cc2)CCC1 | inconclusive: 3.16 µM [activator, partial curve] | 
O=C(N1CCCCC1)N1CCN(C(=O)N(c2ccccc2)c2ccccc2)CC1 |  | inactive: -4.83%
COc1ccccc1-c1nnn(CC#N)n1 | inconclusive: 17.8 µM [activator, single point] | 
CCNCCNC(=O)c1c(O)c2c([nH]c1=O)CCCC2 |  | inactive: 8.57%
CC(=O)Nc1ccc(OCc2cccc3ccccc23)cc1 | inconclusive: 15.8 µM [activator, partial curve] | 
Cc1nc2cc(NC(=O)COc3ccc(C#N)cc3)ccc2n1-c1ccccc1 | inconclusive: 4.47 µM [activator, partial curve] | 
CC1CCC2(CC1)NC(=O)N(CC(=O)Nc1nc(-c3ccc(F)cc3)cs1)C2=O (configuration not stated) | inconclusive: 10 µM [activator, partial curve] | 
CCOc1cccc(C(=O)Nc2ccc(NC(=O)c3ccccc3)c(C)c2)c1 | inconclusive: 14.1 µM [activator, single point] | 

SMILES | Potency | activity, positive = growth rescue
Cc1ccc(-c2cc(C(=O)N/N=C/c3ccoc3)c3ccccc3n2)cc1 | inconclusive: 3.98 µM [activator, single point] | 
COC(=O)C1=C(CS(=O)(=O)c2ccc(OC)c(OC)c2)NC(=O)NC1c1ccc(O)c(OC)c1 (configuration not stated) | inconclusive: 20 µM [activator, single point] | 
CCn1c(CCNC(=O)c2ccc(OC)cc2)nnc1SCc1ccc(Cl)cc1Cl | inconclusive: 17.8 µM [activator, single point] | 
NS(=O)(=O)c1ccc(CCNC(=O)C2CCN(S(=O)(=O)c3ccccc3)CC2)cc1 |  | inactive: -0.991%
COc1ccc2[nH]cc(C(=O)C(=O)N3CCCCC3)c2c1 | inconclusive: 20 µM [activator, single point] | 
O=C(CN(Cc1cccs1)C(=O)c1csnn1)NC1CCCC1 | inconclusive: 11.2 µM [activator, single point] | 
O=C(COc1ccccc1)Nc1cccc(-c2cn3cccnc3n2)c1 |  | inactive: -0.84%
Nc1c(Cl)cc(C2=NCCn3nc4cc([N+](=O)[O-])ccc4c32)cc1Cl |  | inactive: -4.87%
Cc1ccccc1OCC(=O)Nc1nnc(-c2ccncc2)s1 |  | inactive: -3.16%
COc1cccc(NC(=O)CCN2CCN(c3ccccc3F)CC2)c1 | inconclusive: 4.47 µM [activator, single point] | 
Cc1cc(C)c(C)c(C(=O)CSc2nnc(-c3ccc4[nH]c(C)c(C)c4c3)o2)c1C | inconclusive: 2.24 µM [activator, single point] | 
COc1ccc(NC(=O)CN2CCOCC2)cc1S(=O)(=O)N1CCCCC1 | inconclusive: 15.8 µM [activator, single point] | 
C(#Cc1ccccc1)CN1CCN(c2ccccn2)CC1 | inconclusive: 4.47 µM [activator, single point] | 
CC(C)(C)C(=O)Cn1nnc(-c2ccc(C(F)(F)F)cc2)n1 |  | inactive: -0.922%
O=C(Nc1nnc(C2CC2)o1)c1ccc(S(=O)(=O)N2CCc3ccccc3C2)cc1 | inconclusive: 14.1 µM [activator, single point] | 
COc1ccc(N(C(=O)c2cccnc2)S(=O)(=O)c2ccc(Cl)cc2)cc1 | inconclusive: 20 µM [activator, single point] | 
Cc1nn(C(C)C(=O)NCCCN2CCCCCC2)c(=O)c2c1sc1ccccc12 (configuration not stated) | inconclusive: 17.8 µM [activator, single point] | 
OCCC1CN(CC2CC2)CCN1Cc1ccc(F)c(F)c1 (configuration not stated) | inconclusive: 0.355 µM [activator, full curve, poor fit] | 
Fc1cccc(Cl)c1/C=N/Nc1ccccn1 |  | inactive: -0.0251%
C=C(C)CN=c1scc(C)n1/N=C/c1ccco1 | inconclusive: 2.82 µM [activator, single point] | 
Cc1cc(C)c(NC(=O)CSc2nnc(CNC(=O)c3ccccc3F)o2)c(C)c1 | inconclusive: 0.447 µM [activator, full curve] | 
CCc1ccc(N/C(SC)=C(/C#N)C(N)=O)cc1 |  | inactive: 6.47%
Cc1noc(C(=O)N2CCN(c3ccc(F)cc3)CC2)c1Cl | inconclusive: 22.4 µM [activator, single point] | 
COc1cc(-n2c(C)nc3cccnc32)c(Cl)cc1C(=O)O |  | inactive: 1.57%

Shown as a markdown table: entries from further up.

| SMILES | Potency | activity, positive = growth rescue |
| --- | --- | --- |
| CCn1c(CCNC(=O)c2ccc(OC)cc2)nnc1SCc1ccc(Cl)cc1Cl | inconclusive: 17.8 µM [activator, single point] |  |
| NS(=O)(=O)c1ccc(CCNC(=O)C2CCN(S(=O)(=O)c3ccccc3)CC2)cc1 |  | inactive: -0.991% |
| COc1ccc2[nH]cc(C(=O)C(=O)N3CCCCC3)c2c1 | inconclusive: 20 µM [activator, single point] |  |
| O=C(CN(Cc1cccs1)C(=O)c1csnn1)NC1CCCC1 | inconclusive: 11.2 µM [activator, single point] |  |
| O=C(COc1ccccc1)Nc1cccc(-c2cn3cccnc3n2)c1 |  | inactive: -0.84% |
| Nc1c(Cl)cc(C2=NCCn3nc4cc([N+](=O)[O-])ccc4c32)cc1Cl |  | inactive: -4.87% |
| Cc1ccccc1OCC(=O)Nc1nnc(-c2ccncc2)s1 |  | inactive: -3.16% |
| COc1cccc(NC(=O)CCN2CCN(c3ccccc3F)CC2)c1 | inconclusive: 4.47 µM [activator, single point] |  |
| Cc1cc(C)c(C)c(C(=O)CSc2nnc(-c3ccc4[nH]c(C)c(C)c4c3)o2)c1C | inconclusive: 2.24 µM [activator, single point] |  |
| COc1ccc(NC(=O)CN2CCOCC2)cc1S(=O)(=O)N1CCCCC1 | inconclusive: 15.8 µM [activator, single point] |  |
| C(#Cc1ccccc1)CN1CCN(c2ccccn2)CC1 | inconclusive: 4.47 µM [activator, single point] |  |
| CC(C)(C)C(=O)Cn1nnc(-c2ccc(C(F)(F)F)cc2)n1 |  | inactive: -0.922% |
| O=C(Nc1nnc(C2CC2)o1)c1ccc(S(=O)(=O)N2CCc3ccccc3C2)cc1 | inconclusive: 14.1 µM [activator, single point] |  |
| COc1ccc(N(C(=O)c2cccnc2)S(=O)(=O)c2ccc(Cl)cc2)cc1 | inconclusive: 20 µM [activator, single point] |  |
| Cc1nn(C(C)C(=O)NCCCN2CCCCCC2)c(=O)c2c1sc1ccccc12 (configuration not stated) | inconclusive: 17.8 µM [activator, single point] |  |
| OCCC1CN(CC2CC2)CCN1Cc1ccc(F)c(F)c1 (configuration not stated) | inconclusive: 0.355 µM [activator, full curve, poor fit] |  |
| Fc1cccc(Cl)c1/C=N/Nc1ccccn1 |  | inactive: -0.0251% |
| C=C(C)CN=c1scc(C)n1/N=C/c1ccco1 | inconclusive: 2.82 µM [activator, single point] |  |
| Cc1cc(C)c(NC(=O)CSc2nnc(CNC(=O)c3ccccc3F)o2)c(C)c1 | inconclusive: 0.447 µM [activator, full curve] |  |
| CCc1ccc(N/C(SC)=C(/C#N)C(N)=O)cc1 |  | inactive: 6.47% |
